Consider 38 targets from the supplement of paper PMC10849652.

By UniProt entry, the sequences of proteins in these tests, tags left out. Where a name states a change or a piece, a line headed by the entry shows the natural chain unless it says otherwise.
UniProt Q9NT62, whole entry, looked up: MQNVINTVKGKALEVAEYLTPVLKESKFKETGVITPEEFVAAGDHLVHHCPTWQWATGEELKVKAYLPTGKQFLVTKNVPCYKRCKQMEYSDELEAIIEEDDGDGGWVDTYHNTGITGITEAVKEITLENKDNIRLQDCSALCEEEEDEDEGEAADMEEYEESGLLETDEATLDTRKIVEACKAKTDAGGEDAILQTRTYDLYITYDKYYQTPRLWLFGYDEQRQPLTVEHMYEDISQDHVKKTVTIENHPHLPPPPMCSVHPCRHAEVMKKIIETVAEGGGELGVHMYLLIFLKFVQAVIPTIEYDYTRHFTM
UniProt P32121, whole entry, looked up: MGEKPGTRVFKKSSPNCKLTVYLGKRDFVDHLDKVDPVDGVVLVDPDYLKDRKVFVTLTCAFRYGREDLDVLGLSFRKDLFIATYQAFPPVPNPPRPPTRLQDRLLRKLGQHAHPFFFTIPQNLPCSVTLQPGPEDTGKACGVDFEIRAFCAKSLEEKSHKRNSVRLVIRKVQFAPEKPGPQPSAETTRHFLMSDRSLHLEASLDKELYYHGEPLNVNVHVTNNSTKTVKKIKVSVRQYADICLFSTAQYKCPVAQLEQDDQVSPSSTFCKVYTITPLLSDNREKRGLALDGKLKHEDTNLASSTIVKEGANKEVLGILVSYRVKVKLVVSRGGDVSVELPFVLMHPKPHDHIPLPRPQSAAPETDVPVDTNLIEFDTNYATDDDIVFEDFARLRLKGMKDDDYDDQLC
UniProt P38606, whole entry, looked up: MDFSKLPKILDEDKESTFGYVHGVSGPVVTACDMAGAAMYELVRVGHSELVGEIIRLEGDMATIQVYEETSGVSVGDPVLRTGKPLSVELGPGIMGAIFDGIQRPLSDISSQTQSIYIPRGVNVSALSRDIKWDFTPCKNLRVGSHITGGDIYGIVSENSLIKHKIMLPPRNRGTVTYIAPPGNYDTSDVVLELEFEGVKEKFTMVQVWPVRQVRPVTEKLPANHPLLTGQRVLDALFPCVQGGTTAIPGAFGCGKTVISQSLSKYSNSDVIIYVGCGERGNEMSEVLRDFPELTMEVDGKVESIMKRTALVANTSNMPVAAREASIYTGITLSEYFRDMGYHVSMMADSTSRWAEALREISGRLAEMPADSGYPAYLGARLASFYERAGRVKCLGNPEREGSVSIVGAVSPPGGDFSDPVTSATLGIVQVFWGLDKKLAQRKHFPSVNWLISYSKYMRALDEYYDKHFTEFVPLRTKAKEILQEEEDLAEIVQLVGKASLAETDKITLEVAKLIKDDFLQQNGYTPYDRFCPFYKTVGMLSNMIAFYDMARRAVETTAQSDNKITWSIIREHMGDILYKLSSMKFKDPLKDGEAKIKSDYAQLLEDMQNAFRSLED
UniProt P56381: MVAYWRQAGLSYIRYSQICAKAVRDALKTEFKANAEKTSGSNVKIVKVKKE
UniProt O95260: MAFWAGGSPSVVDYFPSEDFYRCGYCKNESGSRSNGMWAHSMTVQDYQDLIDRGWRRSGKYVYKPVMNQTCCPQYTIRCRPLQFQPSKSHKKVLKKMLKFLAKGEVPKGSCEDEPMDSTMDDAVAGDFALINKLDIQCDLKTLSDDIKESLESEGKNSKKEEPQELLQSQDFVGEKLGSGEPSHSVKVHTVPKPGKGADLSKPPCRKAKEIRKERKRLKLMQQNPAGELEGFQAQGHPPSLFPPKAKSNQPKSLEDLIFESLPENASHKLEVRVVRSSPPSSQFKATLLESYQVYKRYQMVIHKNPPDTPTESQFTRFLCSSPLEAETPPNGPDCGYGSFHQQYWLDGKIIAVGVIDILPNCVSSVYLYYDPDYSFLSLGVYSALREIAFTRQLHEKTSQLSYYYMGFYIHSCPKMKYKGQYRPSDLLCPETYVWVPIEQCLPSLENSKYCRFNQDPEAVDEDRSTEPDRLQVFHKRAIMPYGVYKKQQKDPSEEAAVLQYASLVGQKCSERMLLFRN
UniProt Q12797: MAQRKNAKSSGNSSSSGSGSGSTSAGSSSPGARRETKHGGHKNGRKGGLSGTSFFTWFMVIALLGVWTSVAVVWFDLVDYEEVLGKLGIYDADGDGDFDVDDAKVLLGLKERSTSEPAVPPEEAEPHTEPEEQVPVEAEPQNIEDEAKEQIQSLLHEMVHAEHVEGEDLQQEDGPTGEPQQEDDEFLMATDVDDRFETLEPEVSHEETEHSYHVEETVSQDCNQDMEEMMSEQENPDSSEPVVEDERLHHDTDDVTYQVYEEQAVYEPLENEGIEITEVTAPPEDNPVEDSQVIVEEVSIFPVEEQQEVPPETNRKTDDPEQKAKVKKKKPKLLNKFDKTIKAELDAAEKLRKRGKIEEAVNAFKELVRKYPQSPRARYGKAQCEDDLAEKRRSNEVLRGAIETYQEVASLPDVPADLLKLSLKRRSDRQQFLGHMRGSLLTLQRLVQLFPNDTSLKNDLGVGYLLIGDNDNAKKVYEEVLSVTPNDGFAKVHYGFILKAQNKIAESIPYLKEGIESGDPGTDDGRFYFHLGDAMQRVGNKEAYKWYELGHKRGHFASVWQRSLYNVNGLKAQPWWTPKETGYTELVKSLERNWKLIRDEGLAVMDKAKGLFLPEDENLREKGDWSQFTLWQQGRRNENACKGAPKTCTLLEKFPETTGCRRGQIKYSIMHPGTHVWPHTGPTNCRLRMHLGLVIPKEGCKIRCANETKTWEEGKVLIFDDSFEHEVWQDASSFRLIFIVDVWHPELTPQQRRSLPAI
UniProt Q8N3C0, whole entry, looked up: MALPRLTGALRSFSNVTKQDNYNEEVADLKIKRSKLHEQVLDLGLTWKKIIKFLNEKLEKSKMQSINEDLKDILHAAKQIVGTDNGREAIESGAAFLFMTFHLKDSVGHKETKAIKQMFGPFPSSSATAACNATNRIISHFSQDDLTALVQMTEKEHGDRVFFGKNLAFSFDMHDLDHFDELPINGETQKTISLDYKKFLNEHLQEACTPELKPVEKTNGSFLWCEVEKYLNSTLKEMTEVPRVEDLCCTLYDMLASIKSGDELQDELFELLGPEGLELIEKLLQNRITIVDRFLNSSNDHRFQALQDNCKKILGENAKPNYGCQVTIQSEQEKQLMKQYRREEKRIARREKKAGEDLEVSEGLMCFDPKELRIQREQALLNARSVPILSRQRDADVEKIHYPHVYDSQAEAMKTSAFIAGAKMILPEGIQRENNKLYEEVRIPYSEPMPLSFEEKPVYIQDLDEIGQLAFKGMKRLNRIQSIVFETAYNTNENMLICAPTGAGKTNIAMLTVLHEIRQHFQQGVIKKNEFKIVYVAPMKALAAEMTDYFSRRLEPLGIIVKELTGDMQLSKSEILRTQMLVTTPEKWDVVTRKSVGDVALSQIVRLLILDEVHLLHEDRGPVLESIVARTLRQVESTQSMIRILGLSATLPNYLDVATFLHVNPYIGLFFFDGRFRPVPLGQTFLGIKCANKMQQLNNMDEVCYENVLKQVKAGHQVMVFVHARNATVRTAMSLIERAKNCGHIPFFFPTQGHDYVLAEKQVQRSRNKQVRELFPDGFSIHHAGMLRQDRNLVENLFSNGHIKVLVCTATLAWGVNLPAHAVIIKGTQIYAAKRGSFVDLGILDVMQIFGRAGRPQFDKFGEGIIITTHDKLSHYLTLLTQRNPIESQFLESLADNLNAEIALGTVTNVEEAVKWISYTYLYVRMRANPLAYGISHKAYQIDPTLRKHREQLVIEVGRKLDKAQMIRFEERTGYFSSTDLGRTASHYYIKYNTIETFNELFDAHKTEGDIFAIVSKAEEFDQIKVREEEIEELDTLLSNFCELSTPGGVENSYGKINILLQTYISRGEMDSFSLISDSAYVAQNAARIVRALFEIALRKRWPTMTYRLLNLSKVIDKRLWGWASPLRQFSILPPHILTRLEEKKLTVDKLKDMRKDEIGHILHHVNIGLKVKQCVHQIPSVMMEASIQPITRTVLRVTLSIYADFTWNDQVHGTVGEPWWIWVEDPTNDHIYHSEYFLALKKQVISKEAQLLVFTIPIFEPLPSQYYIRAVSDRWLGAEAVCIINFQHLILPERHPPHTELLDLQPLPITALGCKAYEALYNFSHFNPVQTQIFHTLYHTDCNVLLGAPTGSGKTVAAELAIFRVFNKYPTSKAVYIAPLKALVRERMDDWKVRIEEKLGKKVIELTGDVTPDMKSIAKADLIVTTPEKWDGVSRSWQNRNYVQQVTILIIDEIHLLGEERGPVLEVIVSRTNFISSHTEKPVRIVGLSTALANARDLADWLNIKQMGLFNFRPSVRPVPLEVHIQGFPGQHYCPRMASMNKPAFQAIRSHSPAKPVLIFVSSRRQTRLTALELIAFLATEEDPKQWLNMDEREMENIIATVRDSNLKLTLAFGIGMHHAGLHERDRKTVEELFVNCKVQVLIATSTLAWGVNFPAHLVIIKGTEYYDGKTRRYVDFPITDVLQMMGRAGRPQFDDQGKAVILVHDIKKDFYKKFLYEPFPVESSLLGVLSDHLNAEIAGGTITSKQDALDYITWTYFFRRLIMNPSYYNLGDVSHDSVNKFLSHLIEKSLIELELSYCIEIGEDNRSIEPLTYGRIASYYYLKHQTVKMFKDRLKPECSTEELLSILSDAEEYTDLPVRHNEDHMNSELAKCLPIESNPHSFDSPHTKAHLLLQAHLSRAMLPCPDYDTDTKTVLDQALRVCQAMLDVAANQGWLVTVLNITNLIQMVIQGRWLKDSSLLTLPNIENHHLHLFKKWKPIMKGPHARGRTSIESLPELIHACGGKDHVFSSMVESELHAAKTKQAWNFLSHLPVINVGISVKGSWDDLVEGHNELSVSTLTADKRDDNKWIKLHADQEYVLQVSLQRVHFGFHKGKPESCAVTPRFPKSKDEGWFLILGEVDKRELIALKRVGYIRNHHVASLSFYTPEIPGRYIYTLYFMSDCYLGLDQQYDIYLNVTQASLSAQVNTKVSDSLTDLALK
UniProt Q9H2C2: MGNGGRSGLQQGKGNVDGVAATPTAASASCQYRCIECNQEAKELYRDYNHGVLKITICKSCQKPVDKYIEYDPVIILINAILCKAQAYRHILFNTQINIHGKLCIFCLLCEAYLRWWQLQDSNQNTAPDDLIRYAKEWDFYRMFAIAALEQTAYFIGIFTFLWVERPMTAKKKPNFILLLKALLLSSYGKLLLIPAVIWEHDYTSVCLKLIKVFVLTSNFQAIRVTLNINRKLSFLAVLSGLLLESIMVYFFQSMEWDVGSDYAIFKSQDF
UniProt Q9Y294, whole entry, looked up: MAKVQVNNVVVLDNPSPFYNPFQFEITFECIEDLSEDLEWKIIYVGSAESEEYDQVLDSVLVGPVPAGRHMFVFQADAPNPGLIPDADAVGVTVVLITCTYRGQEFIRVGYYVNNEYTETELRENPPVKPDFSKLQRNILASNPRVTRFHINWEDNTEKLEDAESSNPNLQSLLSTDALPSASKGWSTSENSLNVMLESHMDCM
UniProt P23634: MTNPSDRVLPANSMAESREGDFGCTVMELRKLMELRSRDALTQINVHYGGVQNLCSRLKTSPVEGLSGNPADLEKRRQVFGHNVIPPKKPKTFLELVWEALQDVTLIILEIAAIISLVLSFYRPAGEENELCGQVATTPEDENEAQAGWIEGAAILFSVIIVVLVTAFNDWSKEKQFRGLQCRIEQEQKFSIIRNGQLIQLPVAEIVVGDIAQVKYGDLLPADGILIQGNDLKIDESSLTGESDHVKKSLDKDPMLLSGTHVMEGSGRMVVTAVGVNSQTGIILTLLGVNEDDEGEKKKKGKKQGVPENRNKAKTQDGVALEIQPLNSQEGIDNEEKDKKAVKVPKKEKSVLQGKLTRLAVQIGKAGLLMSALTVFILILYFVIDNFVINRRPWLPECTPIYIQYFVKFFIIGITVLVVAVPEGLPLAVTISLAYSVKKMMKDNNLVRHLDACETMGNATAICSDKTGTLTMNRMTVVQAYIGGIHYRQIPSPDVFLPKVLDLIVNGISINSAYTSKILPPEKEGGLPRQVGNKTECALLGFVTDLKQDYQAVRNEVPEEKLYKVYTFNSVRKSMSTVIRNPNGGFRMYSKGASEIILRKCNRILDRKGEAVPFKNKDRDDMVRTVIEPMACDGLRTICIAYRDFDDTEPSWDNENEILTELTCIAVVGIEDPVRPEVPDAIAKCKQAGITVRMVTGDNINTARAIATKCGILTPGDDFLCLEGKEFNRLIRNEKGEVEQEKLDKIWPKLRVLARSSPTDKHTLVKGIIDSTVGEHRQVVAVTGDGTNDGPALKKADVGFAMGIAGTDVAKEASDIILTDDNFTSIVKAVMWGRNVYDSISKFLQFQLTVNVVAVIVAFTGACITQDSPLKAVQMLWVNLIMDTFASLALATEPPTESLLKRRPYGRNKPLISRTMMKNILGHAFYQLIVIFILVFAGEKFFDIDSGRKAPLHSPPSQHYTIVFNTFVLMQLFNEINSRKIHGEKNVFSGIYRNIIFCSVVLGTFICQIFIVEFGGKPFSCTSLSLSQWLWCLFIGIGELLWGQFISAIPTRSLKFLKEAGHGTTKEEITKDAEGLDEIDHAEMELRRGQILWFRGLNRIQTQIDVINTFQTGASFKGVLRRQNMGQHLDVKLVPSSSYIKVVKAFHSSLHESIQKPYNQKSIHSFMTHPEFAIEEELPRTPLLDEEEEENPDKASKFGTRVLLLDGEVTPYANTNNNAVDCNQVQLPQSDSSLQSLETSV

The list shows a part of the results.

Compound in this assay: CC[C@H](C)[C@@H](C(=O)N[C@@H]([C@@H](C)O)C(=O)N[C@@H](CC(C)C)C(=O)[C@]1(CO1)C)NC(=O)[C@H]([C@@H](C)CC)N(C)C(=O)C [epoxomicin]
In words: log2 fold change, soluble protein after heating vs DMSO (PISA); higher = thermal stabilisation; K562 cells, 10 uM, 30 min; active = over 0.2 and 3.5 SD of the protein, either way, in both replicates (recomputed). An outline of the steps:
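K562 cells (2×10^6 cells/mL) were treated with 10 μM compound for 30 min, and aliquots were heated for 3 min over 48°C-58°C. Pooled aliquots were extracted in PBS with 0.5% NP-40 at 4°C, and the supernatant after 21,000xg for 90 min was measured by TMTpro 16plex LC-MS/MS with channel sums equalised. Reported thermal stability, relative to control samples and from duplicates, is a log2 fold change.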
As for ATP7A isoform 3 (UniProt Q04656), the log2 fold change was inactive: -0.02.

As for ARPC1B (UniProt O15143), the log2 fold change was inactive: 0.023. Then ASAP1 isoform 2 (UniProt Q9ULH1), with inactive: 0.073; and ATG3 (UniProt Q9NT62), with inactive: 0.044; and ARL6IP1 (UniProt Q15041), with inactive: 0.04.

Consider ATG2A isoform 3 (UniProt Q2TAZ0), for which the log2 fold change was inactive: 0.015. Then ARRB2 isoform 4 (UniProt P32121), with inactive: -0.038; and ATP5MF (UniProt P56134), with inactive: -0.037.

Regarding ASPM (UniProt Q8IZT6), the log2 fold change is inactive: 0.112. Then ATP6V1A (UniProt P38606), with inactive: 0.015; and ATP11B (UniProt Q9Y2G3), with inactive: -0.014; and ASL (UniProt P04424), with inactive: 0.032. Next, ATP6AP2 (UniProt O75787): inactive: 0.045; ASAH1 isoform 2 (UniProt Q13510): inactive: 0.135. Regarding ATP5F1A (UniProt P25705), the log2 fold change is inactive: -0.025. Then ARIH2 (UniProt O95376), with inactive: 0.053. Consider ARPC3 (UniProt O15145), for which the log2 fold change was inactive: 0.054.

On to ATPAF2 (UniProt Q8N5M1), for which the log2 fold change was inactive: -0.043. Next, ATG2B (UniProt Q96BY7): inactive: 0.01; ARPC1A (UniProt Q92747): inactive: -0.003; ATP5F1E (UniProt P56381): inactive: 0.028. Next, ATE1 isoform 2 (UniProt O95260): inactive: 0.068; ASPH (UniProt Q12797): inactive: -0.113; ATP2C1 isoform 7 (UniProt P98194): inactive: 0.118.

Regarding ATL3 (UniProt Q6DD88), the log2 fold change is inactive: 0.02. Next, ARPC5 (UniProt O15511): inactive: 0.012. Then ARPC2 (UniProt O15144), with inactive: 0.018; and ATP5MC2 isoform 2 (UniProt Q06055), with inactive: 0.018; and ARMC1 (UniProt Q9NVT9), with inactive: 0.042. Next, ATF2 (UniProt P15336): inactive: -0.109; ATP6V0D1 (UniProt P61421): inactive: 0.024. With ASCC3 (UniProt Q8N3C0), the log2 fold change is inactive: -0.22.

For the target ARPC4 isoform 3 (UniProt P59998), the log2 fold change was inactive: 0.021.

For ARV1 (UniProt Q9H2C2), the log2 fold change is inactive: 0.068. Next, ARSB (UniProt P15848): inactive: -0.018. Then ASF1A (UniProt Q9Y294), with inactive: -0.013; and ATP11C (UniProt Q8NB49), with inactive: 0.007; and ATP2B4 (UniProt P23634), with inactive: -0.101.
